# Laboratory results reported in the supplement of paper PMC8728848.
# The other results are listed elsewhere or left out.
# B1: CcfD (Bacteroides fragilis), Q5L9G4 (protein)
# chain: MKKQNSIYTLLIALLCFVSSCDYLGVSDQLAGGLQNTEQVFDNVSYTKRWYANVFAGIPDYSGINSVNVGAFKNPWTGMCDELVVGYGNSSKYNNSDRNAANMGFHRYGDCYKYIRQANIFLQKAHPIMTTGTQGDQLLEDELTQMKANVRFMRAFYHYLLFEQYGPIILVKDKIYNATEDQDVPRNTVDEVIEYIDSELTAVASELTQEPIFEDKDYRAWPTKGVALAVRAKLWLYAASPLLNGGYREALSVTNPDGTRLFPDYDAGKWEKALAACKDFIDYAEAGRYELYKEYKDDNGAVIDPDKSVYNLFQKYTHEIIWATANNDWGGMNGDAFDRRIAPRCEKNGLGSTGVTQELVDAFYMKDGFPVSATAYLPQSTLYQEEGYGTYKDQNDNFSKKYTNVTVSNRYLNREPRFYNTVFFNGRQWPVSCNQVLFYNGGNSGVQEGQATLTGYMLFKRFNRSVSLTNPGVASQFRPSIIFRLADFYLMYAEAANEVNPNDARVLKYLNLVRERAGLPDIETLNPAIRGNQELQRAAIQRERQIELATEGQRYFDVRRWMIADKNGEGRQNGYVHGMNVRGESNDKEDFNRIVEASQIVFNRKMYLYPMPDSEMRKTKNLVQNPGW
# Experiments:
# Assay in all cases: glycan array binding signal (z-score within array); higher = stronger binding
# Conditions in all cases: glycan notation: IUPAC condensed, linker removed
# [1] = target: GlcNAc(a1-6)Gal(b1-4)GlcNAc
# Outline: (§1)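 Glycan array binding is given as a within-array Z-score, which can be read as non-binding when negative. The arrays, 3228 of them, came from the Consortium for Functional Glycomics database and were retained only where the protein sequence was available. Z-scores were averaged across arrays of the same protein sequence at different concentrations or buffers and across linkers.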
# [2] = target: GlcNAc(b1-2)Gal(b1-3)GalNAc
# Outline: as §1
# [3] = target: GlcNAc(b1-2)Man(a1-3)[GlcNAc(b1-2)Man(a1-6)]Man(b1-4)GlcNAc(b1-4)GlcNAc
# Outline: as §1
# [4] = target: GlcNAc(b1-2)Man(a1-3)[GlcNAc(b1-2)Man(a1-6)]Man(b1-4)GlcNAc(b1-4)[Fuc(a1-6)]GlcNAc
# Outline: as §1
# [5] = target: GlcNAc(b1-2)Man(a1-3)[GlcNAc(b1-4)][GlcNAc(b1-2)Man(a1-6)]Man(b1-4)GlcNAc(b1-4)GlcNAc
# Outline: as §1
# [6] = target: GlcNAc(b1-2)Man(a1-3)[GlcNAc(b1-4)][GlcNAc(b1-2)Man(a1-6)]Man(b1-4)GlcNAc(b1-4)[Fuc(a1-6)]GlcNAc
# Outline: as §1
# [7] = target: GlcNAc(b1-2)[GlcNAc(b1-4)]Man(a1-3)[GlcNAc(b1-2)Man(a1-6)]Man(b1-4)GlcNAc(b1-4)GlcNAc
# Outline: as §1
# [8] = target: GlcNAc(b1-2)[GlcNAc(b1-4)]Man(a1-3)[GlcNAc(b1-4)][GlcNAc(b1-2)Man(a1-6)]Man(b1-4)GlcNAc(b1-4)GlcNAc
# Outline: as §1
# [9] = target: GlcNAc(b1-2)[GlcNAc(b1-4)]Man(a1-3)[GlcNAc(b1-4)][GlcNAc(b1-2)[GlcNAc(b1-6)]Man(a1-6)]Man(b1-4)GlcNAc(b1-4)GlcNAc
# Outline: as §1
# [10] = target: GlcNAc(b1-2)[GlcNAc(b1-4)]Man(a1-3)[GlcNAc(b1-4)][GlcNAc(b1-2)[GlcNAc(b1-6)]Man(a1-6)]Man(b1-4)GlcNAc(b1-4)[Fuc(a1-6)]GlcNAc
# Outline: as §1
# [11] = target: GlcNAc(b1-2)[GlcNAc(b1-6)]Man(a1-6)[GlcNAc(b1-2)Man(a1-3)]Man(b1-4)GlcNAc(b1-4)GlcNAc
# Outline: as §1
# [12] = target: GlcNAc(b1-2)[GlcNAc(b1-6)]Man(a1-6)[GlcNAc(b1-2)Man(a1-3)]Man(b1-4)GlcNAc(b1-4)[Fuc(a1-6)]GlcNAc
# Outline: as §1
# [13] = target: GlcNAc(b1-2)[GlcNAc(b1-6)]Man(a1-6)[GlcNAc(b1-4)][GlcNAc(b1-2)Man(a1-3)]Man(b1-4)GlcNAc(b1-4)GlcNAc
# Outline: as §1
# GlcNAc(b1-3)Fuc = target: GlcNAc(b1-3)Fuc
# Outline: as §1
# GlcNAc(b1-3)Gal = target: GlcNAc(b1-3)Gal
# Outline: as §1
# [14] = target: GlcNAc(b1-3)Gal(b1-3)GalNAc
# Outline: as §1
# GlcNAc(b1-3)Gal(b1-4)Glc = target: GlcNAc(b1-3)Gal(b1-4)Glc
# Outline: as §1
# [15] = target: GlcNAc(b1-3)Gal(b1-4)GlcNAc
# Outline: as §1
# [16] = target: GlcNAc(b1-3)Gal(b1-4)GlcNAc(b1-2)Man(a1-3)[GlcNAc(b1-3)Gal(b1-4)GlcNAc(b1-2)Man(a1-6)]Man(b1-4)GlcNAc(b1-4)GlcNAc
# Outline: as §1
# [17] = target: GlcNAc(b1-3)Gal(b1-4)GlcNAc(b1-2)Man(a1-3)[GlcNAc(b1-3)Gal(b1-4)GlcNAc(b1-2)Man(a1-6)]Man(b1-4)GlcNAc(b1-4)[Fuc(a1-6)]GlcNAc
# Outline: as §1
# [18] = target: GlcNAc(b1-3)Gal(b1-4)GlcNAc(b1-2)[GlcNAc(b1-3)Gal(b1-4)GlcNAc(b1-6)]Man(a1-6)[GlcNAc(b1-3)Gal(b1-4)GlcNAc(b1-2)Man(a1-3)]Man(b1-4)GlcNAc(b1-4)GlcNAc
# Outline: as §1
# [19] = target: GlcNAc(b1-3)Gal(b1-4)GlcNAc(b1-3)Gal(b1-4)GlcNAc
# Outline: as §1
# [20] = target: GlcNAc(b1-3)Gal(b1-4)GlcNAc(b1-3)Gal(b1-4)GlcNAc(b1-2)Man(a1-3)[GlcNAc(b1-3)Gal(b1-4)GlcNAc(b1-3)Gal(b1-4)GlcNAc(b1-2)Man(a1-6)]Man(b1-4)GlcNAc(b1-4)GlcNAc
# Outline: as §1
# [21] = target: GlcNAc(b1-3)Gal(b1-4)GlcNAc(b1-3)Gal(b1-4)GlcNAc(b1-2)Man(a1-3)[GlcNAc(b1-3)Gal(b1-4)GlcNAc(b1-3)Gal(b1-4)GlcNAc(b1-2)Man(a1-6)]Man(b1-4)GlcNAc(b1-4)[Fuc(a1-6)]GlcNAc
# Outline: as §1
# [22] = target: GlcNAc(b1-3)Gal(b1-4)GlcNAc(b1-3)Gal(b1-4)GlcNAc(b1-2)[GlcNAc(b1-3)Gal(b1-4)GlcNAc(b1-3)Gal(b1-4)GlcNAc(b1-6)]Man(a1-6)[GlcNAc(b1-3)Gal(b1-4)GlcNAc(b1-3)Gal(b1-4)GlcNAc(b1-2)Man(a1-3)]Man(b1-4)GlcNAc(b1-4)[Fuc(a1-6)]GlcNAc
# Outline: as §1
# [23] = target: GlcNAc(b1-3)Gal(b1-4)GlcNAc(b1-3)Gal(b1-4)GlcNAc(b1-3)Gal(b1-4)GlcNAc(b1-2)Man(a1-3)[GlcNAc(b1-3)Gal(b1-4)GlcNAc(b1-3)Gal(b1-4)GlcNAc(b1-3)Gal(b1-4)GlcNAc(b1-2)Man(a1-6)]Man(b1-4)GlcNAc(b1-4)GlcNAc
# Outline: as §1
# [24] = target: GlcNAc(b1-3)Gal(b1-4)GlcNAc(b1-3)Gal(b1-4)GlcNAc(b1-3)Gal(b1-4)GlcNAc(b1-2)Man(a1-3)[GlcNAc(b1-3)Gal(b1-4)GlcNAc(b1-3)Gal(b1-4)GlcNAc(b1-3)Gal(b1-4)GlcNAc(b1-2)Man(a1-6)]Man(b1-4)GlcNAc(b1-4)[Fuc(a1-6)]GlcNAc
# Outline: as §1
# [25] = target: GlcNAc(b1-3)Gal(b1-4)GlcNAc(b1-3)Gal(b1-4)GlcNAc(b1-3)Gal(b1-4)GlcNAc(b1-2)[GlcNAc(b1-3)Gal(b1-4)GlcNAc(b1-3)Gal(b1-4)GlcNAc(b1-3)Gal(b1-4)GlcNAc(b1-6)]Man(a1-6)[GlcNAc(b1-3)Gal(b1-4)GlcNAc(b1-3)Gal(b1-4)GlcNAc(b1-3)Gal(b1-4)GlcNAc(b1-2)Man(a1-3)]Man(b1-4)GlcNAc(b1-4)[Fuc(a1-6)]GlcNAc
# Outline: as §1
# [26] = target: GlcNAc(b1-3)Gal(b1-4)GlcNAc(b1-3)Gal(b1-4)GlcNAc(b1-3)Gal(b1-4)GlcNAc(b1-3)Gal(b1-4)GlcNAc(b1-2)Man(a1-3)[GlcNAc(b1-3)Gal(b1-4)GlcNAc(b1-3)Gal(b1-4)GlcNAc(b1-3)Gal(b1-4)GlcNAc(b1-3)Gal(b1-4)GlcNAc(b1-2)Man(a1-6)]Man(b1-4)GlcNAc(b1-4)GlcNAc
# Outline: as §1
# [27] = target: GlcNAc(b1-3)Gal(b1-4)GlcNAc(b1-3)Gal(b1-4)GlcNAc(b1-3)Gal(b1-4)GlcNAc(b1-3)Gal(b1-4)GlcNAc(b1-2)Man(a1-3)[GlcNAc(b1-3)Gal(b1-4)GlcNAc(b1-3)Gal(b1-4)GlcNAc(b1-3)Gal(b1-4)GlcNAc(b1-3)Gal(b1-4)GlcNAc(b1-2)Man(a1-6)]Man(b1-4)GlcNAc(b1-4)[Fuc(a1-6)]GlcNAc
# Outline: as §1
binder,measurement,setting,value
B1,glycan array binding signal (z-score),[1],-1.11
same,glycan array binding signal (z-score),[2],-0.791
same,glycan array binding signal (z-score),[3],1.28
same,glycan array binding signal (z-score),[4],0.259
same,glycan array binding signal (z-score),[5],-0.726
same,glycan array binding signal (z-score),[6],-0.089
same,glycan array binding signal (z-score),[7],-0.995
same,glycan array binding signal (z-score),[8],-0.64
same,glycan array binding signal (z-score),[9],-0.548
same,glycan array binding signal (z-score),[10],1.17
same,glycan array binding signal (z-score),[11],-0.726
same,glycan array binding signal (z-score),[12],0.975
same,glycan array binding signal (z-score),[13],-0.647
same,glycan array binding signal (z-score),GlcNAc(b1-3)Fuc,0.647
same,glycan array binding signal (z-score),GlcNAc(b1-3)Gal,-1.03
same,glycan array binding signal (z-score),[14],-0.696
same,glycan array binding signal (z-score),GlcNAc(b1-3)Gal(b1-4)Glc,-1.03
same,glycan array binding signal (z-score),[15],-1.26
same,glycan array binding signal (z-score),[16],2.55
same,glycan array binding signal (z-score),[17],1.11
same,glycan array binding signal (z-score),[18],2.25
same,glycan array binding signal (z-score),[19],-0.726
same,glycan array binding signal (z-score),[20],1.08
same,glycan array binding signal (z-score),[21],1.14
same,glycan array binding signal (z-score),[22],1.33
same,glycan array binding signal (z-score),[23],0.108
same,glycan array binding signal (z-score),[24],1.5
same,glycan array binding signal (z-score),[25],0.91
same,glycan array binding signal (z-score),[26],0.568
same,glycan array binding signal (z-score),[27],1.82

# Part of the list above, bar-delimited:
binder | measurement | setting | value
B1 | glycan array binding signal (z-score) | [3] | 1.28
same | glycan array binding signal (z-score) | [4] | 0.259
same | glycan array binding signal (z-score) | [5] | -0.726
same | glycan array binding signal (z-score) | [6] | -0.089
same | glycan array binding signal (z-score) | [7] | -0.995
